Laboratory results published in the supplement of paper PMC10849652.
Some of the results follow.

Protein sequences, listed by entry. Tags and fused reporters are not part of them. Lines headed by an entry give the natural chain unless they say otherwise; changes in a name come on top.
UniProt Q8TB96: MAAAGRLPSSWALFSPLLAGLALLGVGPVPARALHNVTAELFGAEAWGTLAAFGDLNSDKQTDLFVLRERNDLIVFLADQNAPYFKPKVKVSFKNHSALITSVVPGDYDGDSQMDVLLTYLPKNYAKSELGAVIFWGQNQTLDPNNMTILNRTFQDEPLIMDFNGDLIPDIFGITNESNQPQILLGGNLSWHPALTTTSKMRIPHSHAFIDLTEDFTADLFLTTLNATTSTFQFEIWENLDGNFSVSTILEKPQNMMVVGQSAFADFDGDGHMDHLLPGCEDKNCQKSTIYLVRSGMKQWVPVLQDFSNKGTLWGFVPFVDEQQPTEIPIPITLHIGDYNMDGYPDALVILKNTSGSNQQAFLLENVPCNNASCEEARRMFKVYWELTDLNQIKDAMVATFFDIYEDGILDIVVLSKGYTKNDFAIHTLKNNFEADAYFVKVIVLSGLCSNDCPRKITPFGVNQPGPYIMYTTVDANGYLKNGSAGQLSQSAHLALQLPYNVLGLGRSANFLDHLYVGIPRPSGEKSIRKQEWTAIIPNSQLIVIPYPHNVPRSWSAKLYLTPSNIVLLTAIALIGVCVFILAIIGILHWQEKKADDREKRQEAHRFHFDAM
UniProt Q8NC54: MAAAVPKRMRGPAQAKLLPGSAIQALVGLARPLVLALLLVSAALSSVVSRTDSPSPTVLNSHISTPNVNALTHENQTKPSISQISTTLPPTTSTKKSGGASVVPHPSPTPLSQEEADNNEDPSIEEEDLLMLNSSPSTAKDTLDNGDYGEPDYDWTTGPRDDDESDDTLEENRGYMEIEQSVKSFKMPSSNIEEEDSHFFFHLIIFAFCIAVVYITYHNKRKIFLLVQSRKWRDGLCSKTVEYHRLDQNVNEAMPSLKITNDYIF
UniProt Q7LBC6: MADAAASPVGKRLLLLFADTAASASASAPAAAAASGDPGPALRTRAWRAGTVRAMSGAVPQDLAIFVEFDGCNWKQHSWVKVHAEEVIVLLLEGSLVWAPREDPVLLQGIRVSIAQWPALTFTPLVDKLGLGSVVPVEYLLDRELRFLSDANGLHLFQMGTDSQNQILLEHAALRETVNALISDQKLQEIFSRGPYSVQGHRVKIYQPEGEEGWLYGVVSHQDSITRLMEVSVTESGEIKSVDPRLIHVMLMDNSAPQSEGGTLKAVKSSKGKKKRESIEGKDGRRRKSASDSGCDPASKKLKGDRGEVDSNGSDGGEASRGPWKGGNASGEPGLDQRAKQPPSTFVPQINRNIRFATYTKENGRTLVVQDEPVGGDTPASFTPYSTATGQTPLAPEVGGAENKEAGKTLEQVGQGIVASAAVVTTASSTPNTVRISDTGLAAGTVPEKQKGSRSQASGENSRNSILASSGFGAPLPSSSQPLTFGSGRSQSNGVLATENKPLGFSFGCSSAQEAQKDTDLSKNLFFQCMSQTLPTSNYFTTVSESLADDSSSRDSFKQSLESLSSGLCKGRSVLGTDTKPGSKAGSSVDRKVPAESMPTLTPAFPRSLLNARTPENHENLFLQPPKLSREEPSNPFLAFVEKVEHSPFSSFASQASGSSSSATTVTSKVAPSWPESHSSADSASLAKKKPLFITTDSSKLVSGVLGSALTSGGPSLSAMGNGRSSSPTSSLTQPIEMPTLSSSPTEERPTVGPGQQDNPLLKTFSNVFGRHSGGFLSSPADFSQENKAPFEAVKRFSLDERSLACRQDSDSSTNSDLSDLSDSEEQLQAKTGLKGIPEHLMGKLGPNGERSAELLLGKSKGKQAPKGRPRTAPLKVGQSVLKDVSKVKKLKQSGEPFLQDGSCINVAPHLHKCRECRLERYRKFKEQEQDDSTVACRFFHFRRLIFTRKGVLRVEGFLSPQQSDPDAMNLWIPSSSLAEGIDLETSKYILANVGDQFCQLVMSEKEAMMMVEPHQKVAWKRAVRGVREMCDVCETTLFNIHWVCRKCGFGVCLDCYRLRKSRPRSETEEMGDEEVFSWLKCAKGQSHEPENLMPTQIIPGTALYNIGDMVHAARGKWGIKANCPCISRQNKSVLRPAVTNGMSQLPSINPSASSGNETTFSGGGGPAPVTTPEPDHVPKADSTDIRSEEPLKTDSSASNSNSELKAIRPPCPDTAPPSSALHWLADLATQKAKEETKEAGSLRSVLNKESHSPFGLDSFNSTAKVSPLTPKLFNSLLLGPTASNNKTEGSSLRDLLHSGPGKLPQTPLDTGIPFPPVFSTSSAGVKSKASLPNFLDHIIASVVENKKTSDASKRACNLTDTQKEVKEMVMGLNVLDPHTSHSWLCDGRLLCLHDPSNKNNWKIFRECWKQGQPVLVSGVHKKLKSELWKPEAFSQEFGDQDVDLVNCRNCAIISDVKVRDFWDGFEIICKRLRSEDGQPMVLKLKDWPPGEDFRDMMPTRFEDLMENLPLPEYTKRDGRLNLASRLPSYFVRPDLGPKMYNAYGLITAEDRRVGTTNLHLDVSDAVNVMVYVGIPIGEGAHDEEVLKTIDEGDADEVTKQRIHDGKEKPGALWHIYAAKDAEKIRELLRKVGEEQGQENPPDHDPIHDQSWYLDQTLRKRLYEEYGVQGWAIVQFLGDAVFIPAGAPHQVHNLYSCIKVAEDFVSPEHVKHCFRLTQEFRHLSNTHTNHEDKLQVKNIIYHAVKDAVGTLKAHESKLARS
UniProt Q9BVA0, whole entry, looked up: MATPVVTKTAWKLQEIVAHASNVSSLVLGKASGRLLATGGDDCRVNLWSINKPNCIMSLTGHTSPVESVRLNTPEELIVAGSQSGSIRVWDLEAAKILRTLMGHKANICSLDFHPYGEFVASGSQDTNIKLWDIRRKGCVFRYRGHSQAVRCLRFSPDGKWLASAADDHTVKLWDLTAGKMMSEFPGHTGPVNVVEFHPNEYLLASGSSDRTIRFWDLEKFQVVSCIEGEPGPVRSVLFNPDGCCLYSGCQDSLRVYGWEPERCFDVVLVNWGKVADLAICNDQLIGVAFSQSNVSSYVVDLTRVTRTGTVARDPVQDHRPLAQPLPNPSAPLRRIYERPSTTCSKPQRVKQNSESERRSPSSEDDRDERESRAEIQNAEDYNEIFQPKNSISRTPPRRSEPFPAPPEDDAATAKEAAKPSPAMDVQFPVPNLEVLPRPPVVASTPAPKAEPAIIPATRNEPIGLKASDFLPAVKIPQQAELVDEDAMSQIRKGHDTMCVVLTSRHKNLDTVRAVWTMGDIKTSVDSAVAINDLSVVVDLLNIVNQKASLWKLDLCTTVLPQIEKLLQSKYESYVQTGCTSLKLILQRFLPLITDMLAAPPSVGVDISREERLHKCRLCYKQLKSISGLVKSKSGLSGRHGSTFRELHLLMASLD
UniProt Q9NPH2: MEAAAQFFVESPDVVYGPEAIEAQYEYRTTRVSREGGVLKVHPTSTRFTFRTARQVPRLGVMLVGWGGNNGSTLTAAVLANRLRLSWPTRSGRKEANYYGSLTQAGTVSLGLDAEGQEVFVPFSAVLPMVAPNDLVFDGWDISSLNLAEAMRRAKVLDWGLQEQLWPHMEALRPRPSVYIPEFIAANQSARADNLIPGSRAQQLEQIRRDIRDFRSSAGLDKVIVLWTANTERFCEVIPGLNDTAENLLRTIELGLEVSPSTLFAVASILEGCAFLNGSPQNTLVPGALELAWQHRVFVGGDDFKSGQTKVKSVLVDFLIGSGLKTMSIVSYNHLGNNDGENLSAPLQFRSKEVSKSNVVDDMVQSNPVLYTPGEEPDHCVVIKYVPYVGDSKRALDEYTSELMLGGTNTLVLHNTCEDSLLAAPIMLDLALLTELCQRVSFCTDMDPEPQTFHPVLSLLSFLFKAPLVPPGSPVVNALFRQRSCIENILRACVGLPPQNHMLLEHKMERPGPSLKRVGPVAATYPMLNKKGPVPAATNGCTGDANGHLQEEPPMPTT
UniProt Q8IY47: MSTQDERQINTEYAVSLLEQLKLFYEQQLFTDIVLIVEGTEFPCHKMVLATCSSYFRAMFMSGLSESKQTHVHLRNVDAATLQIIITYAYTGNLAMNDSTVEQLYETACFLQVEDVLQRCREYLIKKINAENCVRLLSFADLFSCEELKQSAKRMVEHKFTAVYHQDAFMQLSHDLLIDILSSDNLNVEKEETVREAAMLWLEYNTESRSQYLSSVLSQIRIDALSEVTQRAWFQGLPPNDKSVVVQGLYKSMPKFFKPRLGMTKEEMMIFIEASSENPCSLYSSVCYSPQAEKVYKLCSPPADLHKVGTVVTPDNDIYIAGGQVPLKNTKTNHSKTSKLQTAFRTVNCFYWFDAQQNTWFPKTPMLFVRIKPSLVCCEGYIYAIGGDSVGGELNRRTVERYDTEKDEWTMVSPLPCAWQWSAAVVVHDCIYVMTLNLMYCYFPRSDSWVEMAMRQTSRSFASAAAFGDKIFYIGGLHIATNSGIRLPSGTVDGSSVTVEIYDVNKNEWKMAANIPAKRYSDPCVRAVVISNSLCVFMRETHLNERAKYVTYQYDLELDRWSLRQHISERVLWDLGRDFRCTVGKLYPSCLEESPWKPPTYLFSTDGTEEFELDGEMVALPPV
UniProt P48200: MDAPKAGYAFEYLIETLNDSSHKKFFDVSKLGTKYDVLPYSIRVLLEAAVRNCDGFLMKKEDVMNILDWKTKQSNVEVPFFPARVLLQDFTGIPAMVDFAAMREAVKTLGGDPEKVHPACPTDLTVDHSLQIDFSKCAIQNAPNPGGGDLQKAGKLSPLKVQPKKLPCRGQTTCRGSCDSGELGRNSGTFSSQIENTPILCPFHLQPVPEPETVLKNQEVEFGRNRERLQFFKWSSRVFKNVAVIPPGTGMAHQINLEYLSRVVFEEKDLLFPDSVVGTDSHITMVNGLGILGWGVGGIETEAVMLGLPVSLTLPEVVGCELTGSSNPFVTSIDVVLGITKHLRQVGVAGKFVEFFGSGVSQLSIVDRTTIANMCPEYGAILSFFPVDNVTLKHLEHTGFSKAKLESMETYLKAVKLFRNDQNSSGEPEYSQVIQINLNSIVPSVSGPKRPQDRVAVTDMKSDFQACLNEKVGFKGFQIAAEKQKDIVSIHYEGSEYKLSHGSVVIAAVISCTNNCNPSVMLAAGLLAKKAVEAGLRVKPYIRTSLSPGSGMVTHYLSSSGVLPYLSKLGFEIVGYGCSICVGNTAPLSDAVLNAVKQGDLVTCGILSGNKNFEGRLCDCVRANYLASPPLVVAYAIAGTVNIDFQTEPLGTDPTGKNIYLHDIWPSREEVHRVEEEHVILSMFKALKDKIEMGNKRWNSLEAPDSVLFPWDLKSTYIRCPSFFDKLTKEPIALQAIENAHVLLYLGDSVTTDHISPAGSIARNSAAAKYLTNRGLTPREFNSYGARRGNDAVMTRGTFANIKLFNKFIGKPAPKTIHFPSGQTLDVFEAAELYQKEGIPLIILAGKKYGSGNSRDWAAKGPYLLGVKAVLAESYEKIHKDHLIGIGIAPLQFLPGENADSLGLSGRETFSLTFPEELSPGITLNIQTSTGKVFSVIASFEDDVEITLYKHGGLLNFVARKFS

How the values were obtained:
Assay in all cases: log2 fold change, soluble protein after heating vs DMSO (PISA); higher = thermal stabilisation; K562 lysate, 10 uM; active = over 0.2 and 3.5 SD of the protein, either way, in both replicates (recomputed)
[1] = compound: CS(=O)(=O)CCNCc1ccc(-c2ccc3ncnc(Nc4ccc(OCc5cccc(F)c5)c(Cl)c4)c3c2)o1 [lapatinib]
Outline: (§1)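 K562 pellets were dounce-homogenised in PBS pH 7.4 containing 1 mM MgCl2, and the crude extract, at 1 mg/mL protein, was exposed to 10 μM compound for 30 min. Aliquots were heated for 3 min across 48°C-58°C, pooled, brought to 0.5% NP-40 at 4°C and spun at 21,000xg for 90 min, with the supernatant taken as soluble protein. TMTpro 16plex LC-MS/MS with equalised channel sums quantified that protein. Values are log-two fold changes in thermal stability relative to solvent controls, taken from duplicates.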

[2] = compound: CS(=O)(=O)N1CCN(Cc2cc3nc(-c4cccc5[nH]ncc45)nc(N4CCOCC4)c3s2)CC1 [pictilisib]
Outline: as §1

[3] = compound: C[C@@H](Oc1cc(-c2cnn(C3CCNCC3)c2)cnc1N)c1c(Cl)ccc(F)c1Cl [crizotinib]
Outline: as §1

[4] = compound: C[C@H](C1=CC=C(C=C1)C(=O)NC2=C3C=CNC3=NC=C2)N
Outline: as §1

[5] = compound: C[C@H](Nc1ncnc2nc[nH]c12)c1cc2cccc(Cl)c2c(=O)n1-c1ccccc1 [duvelisib]
Outline: as §1

[6] = compound: Cc1cc(Nc2cc(CN3CCOCC3)c3nc(C)c(Cc4ccc(Cl)cc4F)n3n2)n[nH]1 [gandotinib]
Outline: as §1

[7] = compound: Cc1cc(Nc2cc(N3CCN(C)CC3)nc(Sc3ccc(NC(=O)C4CC4)cc3)n2)n[nH]1 [tozasertib]
Outline: as §1

[8] = compound: Cc1ccc(-n2nc(C(C)(C)C)cc2NC(=O)Nc2ccc(OCCN3CCOCC3)c3ccccc23)cc1 [doramapimod]
Outline: as §1

[9] = compound: Cc1ccc(NC(=O)c2ccc(CN3CC[C@H](N(C)C)C3)c(C(F)(F)F)c2)cc1Nc1nccc(-c2cncnc2)n1 [bafetinib]
Outline: as §1

[10] = compound: Cc1cccc(CC(=O)N2CCc3c2ccc(-c2cn(C)c4ncnc(N)c24)c3F)n1
Outline: as §1

Row | Target | log2 fold change [1] | log2 fold change [2] | log2 fold change [3] | log2 fold change [4] | log2 fold change [5] | log2 fold change [6] | log2 fold change [7] | log2 fold change [8] | log2 fold change [9] | log2 fold change [10]
1 | ITFG1 (UniProt Q8TB96) | inactive: 0.025 | inactive: -0.101 | inactive: -0.033 | inactive: -0.009 | inactive: -0.047 | inactive: -0.015 | inactive: -0.025 | inactive: -0.054 | inactive: -0.089 | inactive: 0.023
2 | IPO5 isoform 3 (UniProt O00410) | inactive: -0.011 | inactive: -0.004 | inactive: 0.003 | inactive: 0.008 | inactive: 0.017 | inactive: -0.026 | inactive: -0.008 | inactive: 0.001 | inactive: 0.02 | inactive: -0.045
3 | KCT2 (UniProt Q8NC54) | inactive: -0.005 | inactive: -0.018 | inactive: 0.048 | active: -0.331 | inactive: 0.018 | active: 0.277 | inactive: 0.005 | inactive: -0.028 | inactive: -0.023 | inactive: 0.099
4 | IRGQ (UniProt Q8WZA9) | inactive: 0.002 | inactive: -0.029 | inactive: -0.003 | inactive: -0.016 | inactive: 0.003 | inactive: 0.022 | inactive: 0.014 | inactive: 0.021 | inactive: -0.002 | inactive: 0.029
5 | ITPK1 (UniProt Q13572) | inactive: 0.049 | inactive: -0.046 | inactive: -0.025 | inactive: 0.069 | inactive: 0.035 | inactive: -0.023 | inactive: 0.03 | inactive: 0.057 | inactive: -0.05 | inactive: 0.045
6 | JMJD4 (UniProt Q9H9V9) | inactive: -0.033 | inactive: -0.064 | inactive: 0.035 | inactive: -0.024 | inactive: 0.044 | inactive: -0.07 | inactive: -0.205 | inactive: 0.137 | inactive: 0.051 | inactive: 0.072
7 | KDM3B (UniProt Q7LBC6) | inactive: 0.02 | inactive: -0.012 | inactive: -0.002 | inactive: -0.07 | inactive: -0.022 | inactive: 0.025 | inactive: 0.006 | inactive: -0.036 | inactive: -0.074 | inactive: 0.117
8 | KATNB1 (UniProt Q9BVA0) | inactive: -0.009 | inactive: 0.013 | inactive: -0.021 | inactive: 0.051 | inactive: 0.016 | inactive: -0.042 | inactive: 0.015 | inactive: 0.02 | inactive: -0.011 | inactive: 0.014
9 | INTS5 (UniProt Q6P9B9) | inactive: -0.688 | inactive: 0.018 | inactive: -0.082 | inactive: 0.048 | inactive: -0.022 | inactive: -0.235 | inactive: 0.009 | inactive: -0.002 | inactive: -0.092 | inactive: 0.054
10 | INTS4 (UniProt Q96HW7) | inactive: -0.073 | inactive: -0.046 | inactive: -0.027 | inactive: -0.036 | inactive: -0.025 | inactive: 0.007 | inactive: -0.014 | inactive: -0.032 | inactive: -0.067 | inactive: 0.038
11 | ISG15 (UniProt P05161) | inactive: 0.059 | inactive: -0.024 | inactive: -0.038 | inactive: -0.014 | inactive: 0.017 | inactive: 0.034 | inactive: -0.043 | inactive: 0.024 | inactive: -0.01 | inactive: 0.007
12 | IP6K1 (UniProt Q92551) | inactive: 0.026 | inactive: 0.11 | inactive: -0.02 | inactive: -0.026 | inactive: 0.031 | inactive: 0.051 | inactive: 0.095 | inactive: 0.088 | inactive: -0.004 | inactive: 0.063
13 | IRAK4 (UniProt Q9NWZ3) | inactive: -0.021 | inactive: -0.018 | inactive: 0.175 | inactive: 0.012 | inactive: 0.026 | inactive: -0.082 | inactive: 0 | inactive: 0.011 | inactive: -0.013 | inactive: 0.012
14 | ISYNA1 (UniProt Q9NPH2) | inactive: -0.007 | inactive: -0.03 | inactive: 0.016 | inactive: -0.067 | inactive: 0.024 | inactive: 0.083 | inactive: 0.029 | inactive: 0.035 | inactive: 0.045 | inactive: 0.047
15 | INTS7 (UniProt Q9NVH2) | inactive: 0.01 | inactive: -0.032 | inactive: -0.07 | inactive: -0.096 | inactive: 0.01 | inactive: -0.077 | inactive: -0.01 | inactive: 0.4 | inactive: 0.141 | inactive: 0.012
16 | IVNS1ABP (UniProt Q9Y6Y0) | inactive: 0.002 | inactive: -0.059 | inactive: -0.019 | inactive: -0.022 | inactive: 0.008 | inactive: 0.005 | inactive: -0.025 | inactive: 0.023 | inactive: 0.03 | inactive: 0.041
17 | INTS6 (UniProt Q9UL03) | inactive: -0.174 | inactive: -0.053 | inactive: -0.008 | inactive: -0.02 | inactive: 0.106 | inactive: 0.128 | inactive: 0.172 | inactive: -0.026 | inactive: -0.008 | inactive: 0.077
18 | KBTBD2 (UniProt Q8IY47) | inactive: -0.036 | inactive: -0.019 | inactive: -0.073 | inactive: -0.139 | inactive: -0.01 | inactive: 0.124 | inactive: -0.056 | inactive: -0.005 | inactive: -0.07 | inactive: 0.138
19 | KCTD5 (UniProt Q9NXV2) | inactive: 0.009 | inactive: 0.019 | inactive: 0.018 | inactive: -0.014 | inactive: 0.046 | inactive: 0.041 | inactive: 0.037 | inactive: 0.02 | inactive: 0.012 | inactive: 0.059
20 | KAT8 (UniProt Q9H7Z6) | inactive: 0.01 | inactive: -0.056 | inactive: -0.012 | inactive: -0.02 | inactive: 0.011 | inactive: -0.029 | inactive: 0.045 | inactive: 0.055 | inactive: -0.014 | inactive: -0.037
21 | IREB2 (UniProt P48200) | inactive: -0.013 | inactive: -0.001 | inactive: -0.002 | inactive: 0.003 | inactive: -0.005 | inactive: -0.051 | inactive: -0.021 | inactive: -0.012 | inactive: -0.043 | inactive: -0.002
22 | IPO9 (UniProt Q96P70) | inactive: -0.04 | inactive: -0.008 | inactive: -0.022 | inactive: -0.106 | inactive: 0.017 | inactive: 0.033 | inactive: -0.023 | inactive: -0.013 | inactive: -0.03 | inactive: 0.021
23 | KDELR1 (UniProt P24390) | inactive: -0.056 | inactive: 0.103 | inactive: -0.013 | inactive: -0.199 | inactive: -0.036 | inactive: 0.101 | inactive: 0 | inactive: 0.034 | inactive: 0.047 | inactive: 0.29
24 | KCTD20 (UniProt Q7Z5Y7) | inactive: -0.064 | inactive: 0.039 | inactive: -0.077 | inactive: 0.006 | inactive: -0.082 | inactive: 0.006 | inactive: -0.119 | inactive: -0.01 | inactive: 0.007 | inactive: -0.005
25 | ISOC2 (UniProt Q96AB3) | inactive: -0.036 | inactive: 0.038 | inactive: 0.023 | inactive: 0.05 | inactive: -0.038 | inactive: -0.076 | inactive: -0.065 | inactive: -0.014 | inactive: -0.058 | inactive: 0.095
26 | ITPKA (UniProt P23677) | inactive: -0.043 | inactive: -0.055 | inactive: -0.012 | inactive: -0.012 | inactive: -0.038 | inactive: -0.012 | inactive: 0.051 | inactive: 0.016 | inactive: -0.043 | inactive: 0.051
27 | INTS3 (UniProt Q68E01) | inactive: -0.05 | inactive: -0.005 | inactive: -0.016 | inactive: 0.02 | inactive: -0.005 | inactive: -0.104 | inactive: 0.018 | inactive: 0.106 | inactive: -0.07 | inactive: -0.052
28 | ISY1 isoform 1 (UniProt Q9ULR0) | inactive: -0.033 | inactive: 0.011 | inactive: 0.01 | inactive: -0.022 | inactive: 0.019 | inactive: 0.078 | inactive: -0.035 | inactive: 0.016 | inactive: -0.013 | inactive: 0.016
29 | KBTBD4 isoform 2 (UniProt Q9NVX7) | inactive: 0.03 | inactive: -0.015 | inactive: -0.038 | inactive: -0.075 | inactive: 0.056 | inactive: 0.109 | inactive: -0.068 | inactive: -0.023 | inactive: -0.013 | inactive: 0.047
